Experimental data taken from the supplement of paper PMC10849652.
Some of the results follow.

Protein sequences, listed by entry. Tags and fused reporters are not part of them. Lines headed by an entry give the natural chain unless they say otherwise; changes in a name come on top.
UniProt Q9BRQ0: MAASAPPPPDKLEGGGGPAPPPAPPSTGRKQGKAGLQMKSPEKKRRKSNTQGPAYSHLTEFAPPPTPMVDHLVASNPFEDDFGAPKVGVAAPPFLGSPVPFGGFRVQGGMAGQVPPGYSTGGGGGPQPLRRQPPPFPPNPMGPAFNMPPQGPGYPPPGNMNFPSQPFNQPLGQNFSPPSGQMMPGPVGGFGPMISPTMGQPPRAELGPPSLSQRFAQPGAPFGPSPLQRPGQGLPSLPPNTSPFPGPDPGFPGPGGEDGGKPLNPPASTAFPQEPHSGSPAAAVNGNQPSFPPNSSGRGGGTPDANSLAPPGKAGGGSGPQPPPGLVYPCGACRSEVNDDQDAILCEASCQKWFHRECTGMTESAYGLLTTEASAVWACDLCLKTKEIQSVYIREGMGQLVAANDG
UniProt Q8NDX1: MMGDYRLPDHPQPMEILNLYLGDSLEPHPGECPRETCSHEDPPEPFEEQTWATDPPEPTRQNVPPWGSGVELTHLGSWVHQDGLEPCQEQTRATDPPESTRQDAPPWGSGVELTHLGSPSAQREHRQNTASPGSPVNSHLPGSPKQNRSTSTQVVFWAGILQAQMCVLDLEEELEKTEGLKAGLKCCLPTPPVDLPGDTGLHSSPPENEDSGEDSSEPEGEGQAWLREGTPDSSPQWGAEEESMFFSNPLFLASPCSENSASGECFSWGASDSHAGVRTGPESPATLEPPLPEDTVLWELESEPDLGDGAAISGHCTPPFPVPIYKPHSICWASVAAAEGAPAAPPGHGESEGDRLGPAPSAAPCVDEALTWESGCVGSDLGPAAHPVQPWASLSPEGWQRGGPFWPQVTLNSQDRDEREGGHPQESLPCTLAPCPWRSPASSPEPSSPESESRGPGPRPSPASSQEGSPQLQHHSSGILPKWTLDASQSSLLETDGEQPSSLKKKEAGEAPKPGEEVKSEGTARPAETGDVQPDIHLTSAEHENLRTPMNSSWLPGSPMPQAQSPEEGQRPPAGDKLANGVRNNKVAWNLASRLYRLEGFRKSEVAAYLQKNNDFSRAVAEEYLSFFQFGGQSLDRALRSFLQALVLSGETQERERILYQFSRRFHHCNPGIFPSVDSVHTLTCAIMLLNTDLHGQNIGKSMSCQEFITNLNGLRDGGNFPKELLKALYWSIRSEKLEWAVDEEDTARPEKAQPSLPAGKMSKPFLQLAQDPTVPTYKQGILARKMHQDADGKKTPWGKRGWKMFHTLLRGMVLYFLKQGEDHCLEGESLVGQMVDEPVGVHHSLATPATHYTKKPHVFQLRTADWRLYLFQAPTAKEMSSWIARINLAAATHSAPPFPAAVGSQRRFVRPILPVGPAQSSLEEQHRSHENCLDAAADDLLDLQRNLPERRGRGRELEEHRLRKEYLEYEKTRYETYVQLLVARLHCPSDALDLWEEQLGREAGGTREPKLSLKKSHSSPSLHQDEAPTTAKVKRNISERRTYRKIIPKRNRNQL
UniProt Q03393: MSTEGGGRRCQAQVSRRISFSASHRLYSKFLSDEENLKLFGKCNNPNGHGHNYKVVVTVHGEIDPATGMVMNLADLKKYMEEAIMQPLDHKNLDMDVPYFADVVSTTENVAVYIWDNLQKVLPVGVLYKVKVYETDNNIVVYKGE
UniProt Q99952: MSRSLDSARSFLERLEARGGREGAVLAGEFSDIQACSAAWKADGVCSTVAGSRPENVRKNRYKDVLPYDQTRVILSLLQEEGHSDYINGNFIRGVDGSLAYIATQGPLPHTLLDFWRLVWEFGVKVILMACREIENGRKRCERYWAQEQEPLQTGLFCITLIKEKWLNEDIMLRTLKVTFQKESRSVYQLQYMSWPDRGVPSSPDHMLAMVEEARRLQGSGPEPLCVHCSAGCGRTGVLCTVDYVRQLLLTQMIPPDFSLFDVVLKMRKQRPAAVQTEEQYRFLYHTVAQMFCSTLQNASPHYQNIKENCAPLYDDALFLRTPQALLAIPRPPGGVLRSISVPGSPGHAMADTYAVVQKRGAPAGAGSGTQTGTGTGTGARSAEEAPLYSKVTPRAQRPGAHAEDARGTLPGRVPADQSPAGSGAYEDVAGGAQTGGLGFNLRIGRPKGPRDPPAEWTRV
UniProt P35236: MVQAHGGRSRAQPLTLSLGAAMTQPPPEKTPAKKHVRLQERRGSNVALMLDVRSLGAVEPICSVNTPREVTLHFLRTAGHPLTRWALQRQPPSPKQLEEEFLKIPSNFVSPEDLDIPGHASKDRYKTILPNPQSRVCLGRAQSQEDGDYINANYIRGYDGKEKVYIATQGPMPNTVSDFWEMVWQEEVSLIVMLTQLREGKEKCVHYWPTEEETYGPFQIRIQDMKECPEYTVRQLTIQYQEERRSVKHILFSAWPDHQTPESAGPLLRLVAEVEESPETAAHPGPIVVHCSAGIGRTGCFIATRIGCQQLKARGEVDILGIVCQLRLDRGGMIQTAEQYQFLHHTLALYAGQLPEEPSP
UniProt P60484: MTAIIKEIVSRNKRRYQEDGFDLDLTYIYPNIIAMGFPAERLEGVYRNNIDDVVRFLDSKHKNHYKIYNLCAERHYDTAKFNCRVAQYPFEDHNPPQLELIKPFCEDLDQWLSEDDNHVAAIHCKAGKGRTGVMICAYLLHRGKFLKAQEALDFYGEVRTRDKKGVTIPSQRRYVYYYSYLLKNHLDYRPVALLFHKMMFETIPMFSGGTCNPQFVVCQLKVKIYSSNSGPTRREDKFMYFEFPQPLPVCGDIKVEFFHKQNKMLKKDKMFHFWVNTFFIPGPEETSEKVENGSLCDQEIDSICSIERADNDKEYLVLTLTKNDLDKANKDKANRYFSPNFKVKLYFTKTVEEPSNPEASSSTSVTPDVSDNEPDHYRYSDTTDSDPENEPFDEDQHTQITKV
UniProt P28065: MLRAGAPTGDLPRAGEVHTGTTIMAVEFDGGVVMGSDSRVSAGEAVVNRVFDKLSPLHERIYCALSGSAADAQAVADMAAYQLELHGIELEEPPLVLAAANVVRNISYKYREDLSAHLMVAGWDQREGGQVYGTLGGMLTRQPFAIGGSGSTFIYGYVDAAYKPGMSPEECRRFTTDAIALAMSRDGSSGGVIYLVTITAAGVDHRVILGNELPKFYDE
UniProt Q9Y606: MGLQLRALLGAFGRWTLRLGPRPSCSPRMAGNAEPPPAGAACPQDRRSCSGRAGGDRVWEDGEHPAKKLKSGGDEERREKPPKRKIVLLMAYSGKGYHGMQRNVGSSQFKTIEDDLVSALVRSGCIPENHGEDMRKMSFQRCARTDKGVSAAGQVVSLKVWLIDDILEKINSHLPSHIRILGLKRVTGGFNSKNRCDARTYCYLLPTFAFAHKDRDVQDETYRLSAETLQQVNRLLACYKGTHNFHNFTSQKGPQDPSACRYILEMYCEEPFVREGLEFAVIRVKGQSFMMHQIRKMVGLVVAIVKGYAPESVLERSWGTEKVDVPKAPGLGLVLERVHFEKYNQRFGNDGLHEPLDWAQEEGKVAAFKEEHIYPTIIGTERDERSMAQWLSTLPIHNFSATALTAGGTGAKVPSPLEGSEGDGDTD
UniProt Q8N0Z8: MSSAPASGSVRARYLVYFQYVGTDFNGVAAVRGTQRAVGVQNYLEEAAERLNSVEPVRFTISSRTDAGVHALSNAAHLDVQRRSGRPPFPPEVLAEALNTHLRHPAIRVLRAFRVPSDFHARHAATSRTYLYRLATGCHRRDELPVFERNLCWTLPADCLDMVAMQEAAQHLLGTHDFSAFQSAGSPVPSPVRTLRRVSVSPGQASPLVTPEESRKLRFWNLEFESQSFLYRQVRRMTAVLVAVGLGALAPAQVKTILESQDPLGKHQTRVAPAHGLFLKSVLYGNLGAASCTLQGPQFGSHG
UniProt P28074: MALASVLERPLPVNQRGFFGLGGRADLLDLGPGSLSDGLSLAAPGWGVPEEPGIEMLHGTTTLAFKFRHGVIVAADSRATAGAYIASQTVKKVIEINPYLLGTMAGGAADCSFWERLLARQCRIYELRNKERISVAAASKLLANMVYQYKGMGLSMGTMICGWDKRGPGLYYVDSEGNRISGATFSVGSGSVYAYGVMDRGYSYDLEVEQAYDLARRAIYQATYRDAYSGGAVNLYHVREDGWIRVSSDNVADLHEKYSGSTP
UniProt Q9NYI0: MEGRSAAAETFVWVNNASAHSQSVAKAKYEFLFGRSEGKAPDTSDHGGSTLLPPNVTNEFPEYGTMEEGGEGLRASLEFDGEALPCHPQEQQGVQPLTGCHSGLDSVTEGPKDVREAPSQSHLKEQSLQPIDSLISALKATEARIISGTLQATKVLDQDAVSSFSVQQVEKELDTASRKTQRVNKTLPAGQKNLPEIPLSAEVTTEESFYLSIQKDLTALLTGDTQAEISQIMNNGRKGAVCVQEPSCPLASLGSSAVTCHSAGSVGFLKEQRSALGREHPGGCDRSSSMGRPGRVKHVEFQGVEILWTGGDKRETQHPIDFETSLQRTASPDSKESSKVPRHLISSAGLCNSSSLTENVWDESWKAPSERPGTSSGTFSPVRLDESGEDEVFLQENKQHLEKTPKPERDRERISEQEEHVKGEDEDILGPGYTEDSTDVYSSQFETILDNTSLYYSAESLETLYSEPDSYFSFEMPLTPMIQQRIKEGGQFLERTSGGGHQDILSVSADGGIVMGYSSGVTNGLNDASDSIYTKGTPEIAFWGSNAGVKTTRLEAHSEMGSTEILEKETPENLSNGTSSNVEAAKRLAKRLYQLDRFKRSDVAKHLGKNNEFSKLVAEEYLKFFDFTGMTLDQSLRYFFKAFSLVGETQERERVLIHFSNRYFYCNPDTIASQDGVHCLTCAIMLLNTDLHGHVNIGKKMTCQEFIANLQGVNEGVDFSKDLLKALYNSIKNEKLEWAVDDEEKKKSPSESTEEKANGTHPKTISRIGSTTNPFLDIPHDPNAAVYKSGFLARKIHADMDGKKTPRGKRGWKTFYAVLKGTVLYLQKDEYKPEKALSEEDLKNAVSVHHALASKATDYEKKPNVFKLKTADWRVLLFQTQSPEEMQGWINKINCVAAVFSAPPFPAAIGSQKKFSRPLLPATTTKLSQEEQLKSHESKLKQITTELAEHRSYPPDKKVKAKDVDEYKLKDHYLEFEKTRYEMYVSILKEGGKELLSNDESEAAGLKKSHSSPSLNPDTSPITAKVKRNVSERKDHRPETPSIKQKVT
UniProt Q9P2W1: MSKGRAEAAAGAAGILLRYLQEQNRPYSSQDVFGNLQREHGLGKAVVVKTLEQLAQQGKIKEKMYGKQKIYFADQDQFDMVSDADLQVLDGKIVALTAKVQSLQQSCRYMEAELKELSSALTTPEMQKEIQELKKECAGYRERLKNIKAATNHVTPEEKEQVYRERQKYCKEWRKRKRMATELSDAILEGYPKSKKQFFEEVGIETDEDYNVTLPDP

Compound: c1cc(OCCN2CCCCC2)cc(-c2n[nH]c3ccc(-c4nnc[nH]4)cc23)c1
Experiment: log2 fold change, soluble protein after heating vs DMSO (PISA); higher = thermal stabilisation; K562 cells, 10 uM, 30 min; active = over 0.2 and 3.5 SD of the protein, either way, in both replicates (recomputed)
In short: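 Soluble protein was quantified by TMTpro 16plex LC-MS/MS after channel sums were equalised. It was obtained as the supernatant after 21,000xg for 90 min from pooled aliquots of K562 cells (2×10^6 cells/mL, 10 μM compound, 30 min) heated for 3 min across 48°C-58°C and extracted in PBS with 0.5% NP-40 at 4°C. Thermal stability values are relative to control samples and come from duplicates. They are given as log2 fold changes.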

log2 fold change, inactive:
PYCR1 (UniProt J3QKT4) -0.096
PSEN1 (UniProt P49768) 0.009
PYGO2 (UniProt Q9BRQ0) -0.225
PSD4 (UniProt Q8NDX1) 0.047
PTS (UniProt Q03393) -0.079
PTPN18 (UniProt Q99952) -0.029
PSMA3 (UniProt H0YJ03) 0.143
PTPN7 isoform 3 (UniProt P35236) -0.242
PRUNE2 isoform 3 (UniProt Q8WUY3) -0.025
PTEN isoform 2 (UniProt P60484) 0.066
PSMB9 (UniProt P28065) 0
PUS1 (UniProt Q9Y606) -0.19
PSIP1 (UniProt V9GYT7) -0.103
PUSL1 (UniProt Q8N0Z8) -0.118
PSMB5 isoform 3 (UniProt P28074) -0.408
PSD3 (UniProt Q9NYI0) -0.02
PSMC3IP (UniProt Q9P2W1) -0.104

Not a retest: entries from further up.
log2 fold change, inactive:
PSD4 (UniProt Q8NDX1) 0.047
PTS (UniProt Q03393) -0.079
